Assay results as given in PubChem BioAssay AID1671190 (National Center for Advancing Translational Sciences (NCATS), 2021).
Values joined by “and” are separate entries in the source; they are usually repeats but may differ in a detail not shown here. Equal values may be shown once. The whole screen tested about 580,000 compounds, of which about 6,100 (1.1%) were called active. The shares of active, inactive and inconclusive entries below differ from those in the screen. Calls come from the whole dose curve; as a rule, active = well fitted inhibition curve with a large enough effect; inconclusive = small, poorly fitted or top-dose-only effect, or another doubt; inactive = no such curve, though single readings can be large or run the other way. Potencies beside an inconclusive call are fits to weak or partial responses and may not hold up.
% is set by controls: 0 for no effect and ±100 for the full control effect; potency is the fitted concentration of half-maximal effect.

By UniProt entry, the sequences of proteins in these tests, tags left out.
UniProt P18054, whole entry, looked up: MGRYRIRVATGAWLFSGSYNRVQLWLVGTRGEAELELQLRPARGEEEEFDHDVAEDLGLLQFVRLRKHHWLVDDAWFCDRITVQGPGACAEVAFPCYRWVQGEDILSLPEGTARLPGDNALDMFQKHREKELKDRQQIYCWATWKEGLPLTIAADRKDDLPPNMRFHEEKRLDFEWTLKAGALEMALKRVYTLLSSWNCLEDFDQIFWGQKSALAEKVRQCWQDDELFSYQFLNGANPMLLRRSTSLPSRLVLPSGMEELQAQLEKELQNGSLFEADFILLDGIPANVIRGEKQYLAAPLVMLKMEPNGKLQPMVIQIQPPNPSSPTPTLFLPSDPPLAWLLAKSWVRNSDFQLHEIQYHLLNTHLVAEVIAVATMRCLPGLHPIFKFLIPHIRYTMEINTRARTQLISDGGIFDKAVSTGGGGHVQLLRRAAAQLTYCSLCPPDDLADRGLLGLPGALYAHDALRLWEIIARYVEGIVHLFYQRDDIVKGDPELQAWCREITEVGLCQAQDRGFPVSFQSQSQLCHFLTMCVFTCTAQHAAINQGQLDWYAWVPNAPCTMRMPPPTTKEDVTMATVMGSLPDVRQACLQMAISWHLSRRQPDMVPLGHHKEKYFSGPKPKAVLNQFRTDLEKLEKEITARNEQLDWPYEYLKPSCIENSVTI

These compounds were tested against Polyunsaturated fatty acid lipoxygenase ALOX12 (Homo sapiens) (UniProt P18054) (assay: Primary qHTS assay for inhibitors of human arachidonate 12S-lipoxygenase (ALOX12): Round 2). Details: purified 12hLO, xylenol orange hydroperoxide absorbance; activity change, negative = inhibition: at 108 µM (top of the series) unless noted.
Outline: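 Purified human 12hLO (150 nM final) in 25 mM Hepes, 0.01% Triton X-100, pH 7.0 was preincubated 15 min at room temperature with compound. Then 40 uM arachidonic acid was added, 30 min. Hydroperoxide was read by Fe-XO absorbance ratio 573/405 nm.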
With `O=C(Nc1cccc(OC(F)(F)F)c1)C1Cc2c(-c3ccc(Cl)cc3)ccnc2O1` (centres undefined) the “activity change, negative = inhibition” value was inactive: -28.3%.
With `O=C(NC1=NCCS1)C1Cc2ccccc2CN1C(=O)c1ccccc1` (centres undefined) the Potency was inconclusive: 31.6 µM [inhibitor, single point].
With `COC(=O)c1ccc(/C=N/OCc2ccccc2Cl)cc1` the Potency was inconclusive: 35.5 µM [inhibitor, single point].
In the case of `CCc1nnc2c(N(C)S(=O)(=O)c3ccc(C)cc3)nc3ccccc3n12`, the “activity change, negative = inhibition” value is reported as inactive: 1.4%.
With `CCOc1ccc(N(C)C(CNS(=O)(=O)c2ccccc2)c2ccccc2)cc1` (centres undefined) the “activity change, negative = inhibition” value was inactive: -25.5%.
For `Cc1ccc(C(=O)C(Cl)c2ccc(C)cc2)cc1` (centres undefined), the Potency was inconclusive: 39.8 µM [inhibitor, partial curve, poor fit].
For `O=C(O)CCCC(=O)Nc1ccc(Cl)c(Cl)c1`, the “activity change, negative = inhibition” value was inactive: 6.09%.
For `Cc1nc2c(sc3cccc(F)c32)c(=O)n1CC(=O)Nc1ccccc1C(F)(F)F`, the Potency was inconclusive: 56.2 µM [inhibitor, single point].
With `CC(C)c1ccc(Nc2nnc(SCC(=O)NCC3CCCO3)s2)cc1` (centres undefined) the Potency was inconclusive: 100 µM [inhibitor, partial curve, poor fit].
With `NC1(C(=O)O)CC(C(=O)O)C1` (centres undefined) the Potency was “inactive and inconclusive: 1.26 µM [inhibitor, full curve, poor fit] and inconclusive: 562 nM [inhibitor, full curve, poor fit]”.
For `Cc1ccc(-n2c(CNc3cccc(Cl)c3)n[nH]c2=S)cc1`, the Potency was inconclusive: 35.5 µM [inhibitor, partial curve, poor fit].
In the case of `O=C(CC1SC(c2cc3ccccc3oc2=O)=NC1=O)Nc1ccccc1` (centres undefined), the “activity change, negative = inhibition” value is reported as inactive: 0.197%.
`Cc1ccc2[nH]cc(CCNC3CC(=O)N(c4ccc(F)cc4)C3=O)c2c1` (centres undefined) was tested, and the “activity change, negative = inhibition” value was inactive: -30.8%.
For `Cc1cc(C)c(C)c(OCCCN(C)C)c1`, the Potency was inconclusive: 3.98 µM [inhibitor, full curve].
With `C=CCc1ccc(OCCCCNC2CCCC2)c(OC)c1` the Potency was inconclusive: 2.51 µM [inhibitor, full curve].
In the case of `CCn1cc2nc(SCC(=O)N3CCCC3)n(Cc3ccc(OC)cc3)c(=O)c2n1`, the Potency is reported as inconclusive: 126 µM [inhibitor, single point].
In the case of `CCOC(=O)c1c(NC(=S)N2CCN(C)CC2)sc(C)c1-c1ccccc1`, the Potency is reported as inconclusive: 35.5 µM [inhibitor, partial curve, poor fit].
For `O=C(c1ccncc1)N(Cc1ccco1)Cc1cc2ccccc2[nH]c1=O`, the Potency was inconclusive: 50.1 µM [inhibitor, partial curve, poor fit].
With `COc1cc(C(=O)N2CCN(Cc3ccc4c(c3)OCO4)CC2)cc(OC)c1OC` the Potency was inconclusive: 7.08 µM [inhibitor, full curve, poor fit].
In the case of `N#Cc1cccc(NC(=O)c2cc3c(s2)-c2ccc(Cl)cc2SC3)c1`, the Potency is reported as inconclusive: 79.4 µM [inhibitor, partial curve, poor fit].
For `Nc1ccc2cc3ccc(N)cc3nc2c1`, the Potency was inconclusive: 18.1 µM [inhibitor, partial curve, poor fit].
With `O=C(Nc1ccc2oc(=O)ccc2c1)c1ccc(Cl)c(Cl)c1` the Potency was inconclusive: 3.98 µM [inhibitor, full curve, poor fit].
With `O=C(CN(Cc1cccs1)C(=O)c1csnn1)NC1CCCC1` the “activity change, negative = inhibition” value was inactive: -26%.
`COc1ccc(-c2csc(N3N=C(C)CC3c3ccc(OC)c(OC)c3)n2)cc1OC` (centres undefined) was tested, and the “activity change, negative = inhibition” value was inactive: 0.927%.
For `O=C(CCc1ncc(-c2ccccc2)o1)Nc1ccc(Cl)cc1F`, the Potency was inconclusive: 44.7 µM [inhibitor, partial curve, poor fit].
For `Cc1csc2nc(CNC(=O)CCC(=O)O)cn12`, the Potency was inconclusive: 39.8 µM [inhibitor, partial curve, poor fit].
In the case of `CC(C)NC(=S)NC(=O)c1ccc(-c2ccccc2)cc1`, the Potency is reported as active: 15.8 µM.
`O=C(NCc1ccco1)c1ccc2c(c1)OCCO2` was tested, and the “activity change, negative = inhibition” value was inactive: -27.9%.
For `COc1ccc(NC(=O)N(C)CC2CCOCC2)cc1Cl`, the “activity change, negative = inhibition” value was inactive: 11.6%.
With `CCOc1nc2ccccc2nc1NS(=O)(=O)c1ccc(Cl)cc1` the Potency was inconclusive: 28.2 µM [inhibitor, partial curve, poor fit].
With `Cc1ccccc1N(C(=O)c1snc(C(N)=O)c1N)C(C(=O)NCc1ccccc1)c1ccc(O)cc1` (centres undefined) the Potency was inconclusive: 20 µM [inhibitor, partial curve, poor fit].
With `CCc1nc2ccc(C(=O)NCC(F)(F)F)cc2nc1CC` the “activity change, negative = inhibition” value was inactive: 2.39%.
`C=Cc1ccc(CSc2nc(-c3ccc(C)cc3)nc3c2Cc2c(CO)cnc(C)c2O3)cc1` was tested, and the Potency was inconclusive: 112 µM [inhibitor, partial curve, poor fit].
In the case of `Cc1ccc(-c2noc([C@@H]3C[C@H](NC(=O)Nc4cccc(F)c4)CN3C)n2)cc1`, the Potency is reported as inconclusive: 70.8 µM [inhibitor, partial curve].
`COCCNC(=O)NCCc1noc(C)n1` was tested, and the Potency was inconclusive: 39.8 µM [inhibitor, partial curve, poor fit].
`NCCCn1c(C(=O)c2ccc(Cl)cc2)c2ccc([N+](=O)[O-])cc2[n+]1[O-]` was tested, and the Potency was inconclusive: 39.8 µM [inhibitor, partial curve, poor fit].
In the case of `COc1cc(NC(=O)CSc2nc(=O)n(CCN3CCOCC3)c3c2CCC3)cc(OC)c1`, the activity change, negative = inhibition is reported as inconclusive: -32.1% [inhibitor].
`CN(CC(=O)NCCCN1CCOCC1)S(=O)(=O)c1ccc(Cl)cc1` was tested, and the “activity change, negative = inhibition” value was inactive: 2.51%.
In the case of `COC(=O)c1sc(NC(=O)C2CCCCC2C(=O)O)c(C(=O)OC)c1C` (centres undefined), the “activity change, negative = inhibition” value is reported as inactive: -4.85%.
For `CCCOc1ccc(OCCOCCNCc2ccccc2)cc1`, the Potency was inconclusive: 3.16 µM [inhibitor, full curve].
In the case of `COc1ccc2c(c1)[nH]c1c(Cl)ncnc12`, the “activity change, negative = inhibition” value is reported as inactive: -5.4%.
With `Cc1onc(-c2ccccc2)c1-c1ccnn1C(=O)NC(C)C` the “activity change, negative = inhibition” value was inactive: 0%.
In the case of `N#CCCN(C(=O)CN1CCCC1c1ccc(Cl)c(Cl)c1)c1ccccc1F` (centres undefined), the Potency is reported as inconclusive: 39.8 µM [inhibitor, partial curve, poor fit].
For `COC(=O)[C@H](CC(C)C)NC(=O)N1CCCCC1`, the Potency was inconclusive: 112 µM [inhibitor, single point].
